Taken from: PubChem BioAssay AID1259424 (University of Nebraska Medical Center, 2018)
This is an unselected part of about 14,000 deposited reagents. 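Higher correlation or smaller distance means closer resemblance to KSR1 loss; control wells, including KSR1 knockdowns, recur on many plates.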 Further read-outs or replicates are left out here. The record does not give: the time to read-out.

- Test: 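Rank knockdowns across the genome by resemblance to the KSR1 depletion profile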 (primary screen)
- Cell system: human HCT116 colon cancer cells
- Reagent: siRNA pool against human genes, 50 nM
- Read-out: 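Log2 levels of six mRNAs (branched-DNA multiplex), adjusted by two reference genes and the non-targeting median, then scored against the average KSR1 knockdown pattern as Pearson r and euclidean distance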
- Scale: mean correlation with KSR1 profile: higher = expression change more like KSR1 knockdown

The opening 3 records as a preview:
SERPINA3 | mean correlation with KSR1 profile: -0.222
CREB3L2 | mean correlation with KSR1 profile: -0.545
FANCD2 | mean correlation with KSR1 profile: 0.013

The listing, from the start:
SERPINA3 | mean correlation with KSR1 profile: -0.222
CREB3L2 | mean correlation with KSR1 profile: -0.545
FANCD2 | mean correlation with KSR1 profile: 0.013
BACH1 | mean correlation with KSR1 profile: 0.835
BICRA | mean correlation with KSR1 profile: -0.00518
SMC3 | mean correlation with KSR1 profile: -0.431
SLC7A5P1 | mean correlation with KSR1 profile: 0.665
MBL2 | mean correlation with KSR1 profile: 0.375
CRAT | mean correlation with KSR1 profile: -0.696
GTPBP3 | mean correlation with KSR1 profile: 0.615
MAST1 | mean correlation with KSR1 profile: -0.788
TYW2 | mean correlation with KSR1 profile: -0.836
RNF135 | mean correlation with KSR1 profile: 0.453
TUT1 | mean correlation with KSR1 profile: -0.712
CYP4F11 | mean correlation with KSR1 profile: -0.535
TSC22D4 | mean correlation with KSR1 profile: 0.589
GREM2 | mean correlation with KSR1 profile: 0.462
WASF3 | mean correlation with KSR1 profile: 0.227
ERCC5 | mean correlation with KSR1 profile: -0.651
DPEP1 | mean correlation with KSR1 profile: -0.179
GADD45G | mean correlation with KSR1 profile: 0.101
HLA-DQA2 | mean correlation with KSR1 profile: -0.0736
RPS29 | mean correlation with KSR1 profile: -0.49
TUBA1C | mean correlation with KSR1 profile: -0.0194
SNRNP70 | mean correlation with KSR1 profile: -0.416
MAP3K12 | mean correlation with KSR1 profile: 0.102
JMJD4 | mean correlation with KSR1 profile: -0.548
SLC14A2 | mean correlation with KSR1 profile: 0.568
